Test results from the supplement of paper PMC10849652.
The list shows a part of the results.

The chains behind the UniProt entries cited, without tags or fusion partners. Where a name states a change or a piece, a line headed by the entry shows the natural chain unless it says otherwise.
UniProt Q13395: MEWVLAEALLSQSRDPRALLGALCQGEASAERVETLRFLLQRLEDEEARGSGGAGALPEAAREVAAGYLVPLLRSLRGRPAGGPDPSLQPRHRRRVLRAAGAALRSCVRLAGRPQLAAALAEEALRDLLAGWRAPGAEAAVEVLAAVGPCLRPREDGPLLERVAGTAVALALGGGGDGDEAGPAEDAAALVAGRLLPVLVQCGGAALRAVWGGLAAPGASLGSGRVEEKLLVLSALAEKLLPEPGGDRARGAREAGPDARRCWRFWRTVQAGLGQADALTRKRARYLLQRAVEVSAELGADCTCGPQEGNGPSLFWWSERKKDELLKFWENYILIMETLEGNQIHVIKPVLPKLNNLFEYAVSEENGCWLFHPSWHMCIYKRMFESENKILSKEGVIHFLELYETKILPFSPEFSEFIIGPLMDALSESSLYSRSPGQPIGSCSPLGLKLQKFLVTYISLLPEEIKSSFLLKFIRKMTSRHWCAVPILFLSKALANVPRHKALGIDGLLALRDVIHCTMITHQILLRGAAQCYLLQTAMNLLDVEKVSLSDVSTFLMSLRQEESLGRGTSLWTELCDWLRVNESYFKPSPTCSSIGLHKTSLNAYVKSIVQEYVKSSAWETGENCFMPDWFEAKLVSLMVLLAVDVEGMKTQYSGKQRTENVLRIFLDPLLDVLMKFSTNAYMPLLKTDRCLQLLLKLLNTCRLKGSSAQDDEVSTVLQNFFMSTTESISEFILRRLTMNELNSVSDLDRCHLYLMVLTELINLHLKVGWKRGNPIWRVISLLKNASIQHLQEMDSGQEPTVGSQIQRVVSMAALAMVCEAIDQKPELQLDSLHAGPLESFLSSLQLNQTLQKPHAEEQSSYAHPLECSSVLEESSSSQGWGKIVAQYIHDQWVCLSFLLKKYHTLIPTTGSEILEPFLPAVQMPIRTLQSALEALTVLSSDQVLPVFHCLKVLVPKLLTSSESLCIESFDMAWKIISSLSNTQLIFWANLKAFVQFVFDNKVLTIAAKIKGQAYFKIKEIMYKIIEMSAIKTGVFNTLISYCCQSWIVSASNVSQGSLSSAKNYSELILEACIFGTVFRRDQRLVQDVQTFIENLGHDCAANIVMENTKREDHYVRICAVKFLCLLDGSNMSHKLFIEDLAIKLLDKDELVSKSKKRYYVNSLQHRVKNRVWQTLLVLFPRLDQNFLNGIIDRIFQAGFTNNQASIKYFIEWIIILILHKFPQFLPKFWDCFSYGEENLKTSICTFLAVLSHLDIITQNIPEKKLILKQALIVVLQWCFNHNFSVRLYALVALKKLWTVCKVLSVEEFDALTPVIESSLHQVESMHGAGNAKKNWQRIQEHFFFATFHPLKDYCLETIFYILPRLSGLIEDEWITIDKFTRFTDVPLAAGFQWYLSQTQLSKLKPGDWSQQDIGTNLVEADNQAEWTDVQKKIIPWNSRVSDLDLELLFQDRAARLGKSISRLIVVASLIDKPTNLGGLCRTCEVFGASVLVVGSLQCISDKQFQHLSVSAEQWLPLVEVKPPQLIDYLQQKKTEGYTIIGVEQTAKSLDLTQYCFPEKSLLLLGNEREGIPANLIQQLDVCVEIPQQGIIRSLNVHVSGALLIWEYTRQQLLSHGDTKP
UniProt Q9Y2H1: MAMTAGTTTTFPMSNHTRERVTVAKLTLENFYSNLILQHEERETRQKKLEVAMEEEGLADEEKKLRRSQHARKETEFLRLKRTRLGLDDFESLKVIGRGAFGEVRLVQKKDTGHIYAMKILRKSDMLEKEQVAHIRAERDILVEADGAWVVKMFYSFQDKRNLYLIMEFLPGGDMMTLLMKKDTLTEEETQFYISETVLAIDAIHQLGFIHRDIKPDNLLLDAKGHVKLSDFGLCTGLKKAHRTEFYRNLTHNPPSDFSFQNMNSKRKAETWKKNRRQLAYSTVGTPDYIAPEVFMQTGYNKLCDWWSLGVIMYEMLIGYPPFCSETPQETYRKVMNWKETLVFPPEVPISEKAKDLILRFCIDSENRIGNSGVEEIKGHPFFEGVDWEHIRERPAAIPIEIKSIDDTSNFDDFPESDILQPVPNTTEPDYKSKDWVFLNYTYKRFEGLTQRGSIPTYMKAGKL
UniProt Q01995: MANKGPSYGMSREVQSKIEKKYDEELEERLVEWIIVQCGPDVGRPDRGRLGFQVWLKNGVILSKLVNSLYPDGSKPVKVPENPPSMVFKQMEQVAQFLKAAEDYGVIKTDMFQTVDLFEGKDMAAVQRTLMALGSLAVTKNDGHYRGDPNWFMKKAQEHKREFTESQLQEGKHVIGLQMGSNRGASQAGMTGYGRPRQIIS
UniProt P27105: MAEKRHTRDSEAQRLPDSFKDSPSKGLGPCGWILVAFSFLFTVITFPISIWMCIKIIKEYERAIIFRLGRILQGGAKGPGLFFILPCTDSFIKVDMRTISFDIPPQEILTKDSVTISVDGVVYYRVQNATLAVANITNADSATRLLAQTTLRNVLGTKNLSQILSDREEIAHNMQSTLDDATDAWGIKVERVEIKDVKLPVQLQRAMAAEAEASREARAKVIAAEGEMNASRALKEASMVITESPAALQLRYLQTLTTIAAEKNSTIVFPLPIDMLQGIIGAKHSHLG
UniProt Q15526: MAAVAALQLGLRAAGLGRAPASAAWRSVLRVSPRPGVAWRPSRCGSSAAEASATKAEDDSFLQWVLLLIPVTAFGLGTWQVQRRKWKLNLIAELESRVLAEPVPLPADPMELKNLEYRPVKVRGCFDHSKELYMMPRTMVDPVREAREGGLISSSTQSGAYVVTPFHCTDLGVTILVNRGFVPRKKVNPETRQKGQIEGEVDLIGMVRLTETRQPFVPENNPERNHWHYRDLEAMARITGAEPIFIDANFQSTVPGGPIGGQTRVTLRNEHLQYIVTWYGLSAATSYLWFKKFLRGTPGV
UniProt O94901, whole entry, looked up: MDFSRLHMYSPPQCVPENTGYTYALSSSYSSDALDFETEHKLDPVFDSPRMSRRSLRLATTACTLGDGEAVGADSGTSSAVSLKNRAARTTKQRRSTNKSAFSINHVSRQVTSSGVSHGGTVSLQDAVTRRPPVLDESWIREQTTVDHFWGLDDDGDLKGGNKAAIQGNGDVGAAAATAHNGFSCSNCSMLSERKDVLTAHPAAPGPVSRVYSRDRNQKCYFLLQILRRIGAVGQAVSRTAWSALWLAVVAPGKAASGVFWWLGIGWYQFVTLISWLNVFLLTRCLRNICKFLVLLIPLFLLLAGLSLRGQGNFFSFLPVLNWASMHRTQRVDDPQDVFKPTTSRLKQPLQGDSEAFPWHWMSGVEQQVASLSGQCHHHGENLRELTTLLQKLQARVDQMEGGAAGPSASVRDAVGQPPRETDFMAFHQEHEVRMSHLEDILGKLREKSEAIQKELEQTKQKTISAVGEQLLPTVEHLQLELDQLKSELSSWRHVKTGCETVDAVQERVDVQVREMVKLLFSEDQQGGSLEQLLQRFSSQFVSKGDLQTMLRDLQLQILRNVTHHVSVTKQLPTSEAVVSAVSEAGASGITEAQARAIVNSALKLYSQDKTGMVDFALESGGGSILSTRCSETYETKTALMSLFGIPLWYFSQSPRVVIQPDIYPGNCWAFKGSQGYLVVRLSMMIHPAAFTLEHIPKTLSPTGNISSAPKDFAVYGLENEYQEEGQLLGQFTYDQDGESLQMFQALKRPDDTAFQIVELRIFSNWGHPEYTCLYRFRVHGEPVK
UniProt Q9C0B7: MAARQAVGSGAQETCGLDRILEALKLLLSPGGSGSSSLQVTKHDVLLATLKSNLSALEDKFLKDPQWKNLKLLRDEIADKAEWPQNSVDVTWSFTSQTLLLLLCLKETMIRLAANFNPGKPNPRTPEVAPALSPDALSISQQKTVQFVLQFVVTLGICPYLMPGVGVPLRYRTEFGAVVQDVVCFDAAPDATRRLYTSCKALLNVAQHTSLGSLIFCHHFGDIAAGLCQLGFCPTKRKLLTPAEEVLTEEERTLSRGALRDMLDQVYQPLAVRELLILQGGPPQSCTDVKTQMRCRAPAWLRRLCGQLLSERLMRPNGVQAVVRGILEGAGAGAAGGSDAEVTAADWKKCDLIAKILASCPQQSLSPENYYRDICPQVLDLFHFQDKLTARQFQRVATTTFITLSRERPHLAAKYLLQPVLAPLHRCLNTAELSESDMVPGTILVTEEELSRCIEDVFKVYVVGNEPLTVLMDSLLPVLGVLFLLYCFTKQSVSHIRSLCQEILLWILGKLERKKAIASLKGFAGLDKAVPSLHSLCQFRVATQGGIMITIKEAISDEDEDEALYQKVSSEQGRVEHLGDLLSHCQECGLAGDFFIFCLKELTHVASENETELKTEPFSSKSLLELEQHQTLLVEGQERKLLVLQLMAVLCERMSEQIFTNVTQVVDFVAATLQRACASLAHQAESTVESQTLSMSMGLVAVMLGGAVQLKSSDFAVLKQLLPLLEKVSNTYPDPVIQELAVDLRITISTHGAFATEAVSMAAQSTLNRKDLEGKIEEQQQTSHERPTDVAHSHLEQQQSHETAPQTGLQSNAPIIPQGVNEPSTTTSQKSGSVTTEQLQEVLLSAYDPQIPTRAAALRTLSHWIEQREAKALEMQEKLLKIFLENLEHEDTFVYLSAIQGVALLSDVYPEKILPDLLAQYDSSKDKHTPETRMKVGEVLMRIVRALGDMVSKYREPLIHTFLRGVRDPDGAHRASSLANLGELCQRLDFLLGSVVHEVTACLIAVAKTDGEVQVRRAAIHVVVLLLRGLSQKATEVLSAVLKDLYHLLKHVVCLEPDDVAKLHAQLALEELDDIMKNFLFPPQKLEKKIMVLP
UniProt Q86VP1, whole entry, looked up: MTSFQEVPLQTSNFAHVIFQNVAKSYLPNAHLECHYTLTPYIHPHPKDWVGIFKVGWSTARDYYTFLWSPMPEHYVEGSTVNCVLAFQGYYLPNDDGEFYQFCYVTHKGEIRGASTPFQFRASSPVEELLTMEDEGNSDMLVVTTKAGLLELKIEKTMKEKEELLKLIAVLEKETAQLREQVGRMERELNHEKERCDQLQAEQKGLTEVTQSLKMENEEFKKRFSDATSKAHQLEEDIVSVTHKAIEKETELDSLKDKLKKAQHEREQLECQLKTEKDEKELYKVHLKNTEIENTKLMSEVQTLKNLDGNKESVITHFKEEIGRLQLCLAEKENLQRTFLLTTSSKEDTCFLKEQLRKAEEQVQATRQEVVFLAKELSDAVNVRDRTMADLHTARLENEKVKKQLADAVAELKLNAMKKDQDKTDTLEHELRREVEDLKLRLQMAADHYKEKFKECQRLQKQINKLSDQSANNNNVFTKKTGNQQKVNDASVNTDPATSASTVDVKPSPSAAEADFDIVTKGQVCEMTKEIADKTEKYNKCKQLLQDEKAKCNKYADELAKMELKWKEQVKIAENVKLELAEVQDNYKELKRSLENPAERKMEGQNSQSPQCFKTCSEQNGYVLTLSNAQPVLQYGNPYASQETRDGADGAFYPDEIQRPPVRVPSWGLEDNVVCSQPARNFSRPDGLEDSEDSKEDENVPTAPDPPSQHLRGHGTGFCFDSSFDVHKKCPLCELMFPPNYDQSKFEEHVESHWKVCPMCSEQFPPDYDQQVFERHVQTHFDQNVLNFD
UniProt Q96BW9: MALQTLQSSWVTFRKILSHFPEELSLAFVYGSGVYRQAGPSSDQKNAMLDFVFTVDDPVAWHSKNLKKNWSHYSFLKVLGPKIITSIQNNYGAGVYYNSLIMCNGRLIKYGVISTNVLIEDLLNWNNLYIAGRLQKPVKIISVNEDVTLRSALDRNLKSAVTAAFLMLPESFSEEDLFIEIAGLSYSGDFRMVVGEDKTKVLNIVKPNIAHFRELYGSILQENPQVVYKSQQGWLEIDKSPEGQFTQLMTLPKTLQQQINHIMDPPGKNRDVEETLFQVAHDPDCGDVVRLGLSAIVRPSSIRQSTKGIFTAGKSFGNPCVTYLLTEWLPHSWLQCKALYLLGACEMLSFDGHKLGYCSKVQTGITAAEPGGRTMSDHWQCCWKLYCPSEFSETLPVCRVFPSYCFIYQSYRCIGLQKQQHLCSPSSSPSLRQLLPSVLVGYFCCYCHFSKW
UniProt O95926: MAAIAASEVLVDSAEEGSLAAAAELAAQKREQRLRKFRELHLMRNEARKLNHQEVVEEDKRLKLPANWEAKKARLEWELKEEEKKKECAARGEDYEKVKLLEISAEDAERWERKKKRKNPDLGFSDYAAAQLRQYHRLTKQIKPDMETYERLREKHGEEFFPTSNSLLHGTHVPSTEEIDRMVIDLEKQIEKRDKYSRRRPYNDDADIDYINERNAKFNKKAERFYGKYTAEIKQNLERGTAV
UniProt P61956, whole entry, looked up: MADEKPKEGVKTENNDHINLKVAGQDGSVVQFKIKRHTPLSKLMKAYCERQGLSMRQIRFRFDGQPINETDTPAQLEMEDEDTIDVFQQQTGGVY

Key:
Experiment in all cases: log2 fold change, soluble protein after heating vs DMSO (PISA); higher = thermal stabilisation; K562 cells, 10 uM, 30 min; active = over 0.2 and 3.5 SD of the protein, either way, in both replicates (recomputed)
[1] = compound: CS(=O)(=O)c1ccc(-c2cnc(N)c(C(=O)Nc3ccccc3)n2)cc1
Outline: (§1)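 K562 cells (2×10^6 cells/mL) were treated with 10 μM compound for 30 min, and aliquots were heated for 3 min over 48°C-58°C. Pooled aliquots were extracted in PBS with 0.5% NP-40 at 4°C, and the supernatant after 21,000xg for 90 min was measured by TMTpro 16plex LC-MS/MS with channel sums equalised. Reported thermal stability, relative to control samples and from duplicates, is a log2 fold change.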

crizotinib = compound: C[C@@H](Oc1cc(-c2cnn(C3CCNCC3)c2)cnc1N)c1c(Cl)ccc(F)c1Cl [crizotinib]
Outline: as §1

[2] = compound: C[C@@H]1COCCN1C2=NC(=NC(=C2)C3(CC3)S(=O)(=O)C)C4=C5C=CNC5=CC=C4
Outline: as §1

[3] = compound: C[C@H](C1=CC=C(C=C1)C(=O)NC2=C3C=CNC3=NC=C2)N
Outline: as §1

gandotinib = compound: Cc1cc(Nc2cc(CN3CCOCC3)c3nc(C)c(Cc4ccc(Cl)cc4F)n3n2)n[nH]1 [gandotinib]
Outline: as §1

[4] = compound: Cc1cc(SCc2sc(-c3ccc(C(F)(F)F)cc3)nc2C)ccc1OCC(=O)O
Outline: as §1

doramapimod = compound: Cc1ccc(-n2nc(C(C)(C)C)cc2NC(=O)Nc2ccc(OCCN3CCOCC3)c3ccccc23)cc1 [doramapimod]
Outline: as §1

ispinesib = compound: Cc1ccc(C(=O)N(CCCN)[C@@H](c2nc3cc(Cl)ccc3c(=O)n2Cc2ccccc2)C(C)C)cc1 [ispinesib]
Outline: as §1

bafetinib = compound: Cc1ccc(NC(=O)c2ccc(CN3CC[C@H](N(C)C)C3)c(C(F)(F)F)c2)cc1Nc1nccc(-c2cncnc2)n1 [bafetinib]
Outline: as §1

[5] = compound: Cc1cccc(CC(=O)N2CCc3c2ccc(-c2cn(C)c4ncnc(N)c24)c3F)n1
Outline: as §1

nilotinib = compound: Cc1cn(-c2cc(NC(=O)c3ccc(C)c(Nc4nccc(-c5cccnc5)n4)c3)cc(C(F)(F)F)c2)cn1 [nilotinib]
Outline: as §1

[6] = compound: Cc1nc(Nc2n[nH]c3c2CN(C(=O)N[C@H](CN(C)C)c2ccccc2)C3(C)C)c2sccc2n1
Outline: as §1

dasatinib = compound: Cc1nc(Nc2ncc(C(=O)Nc3c(C)cccc3Cl)s2)cc(N2CCN(CCO)CC2)n1 [dasatinib]
Outline: as §1

[7] = compound: Cc1ncc(-c2ccnc(Nc3ccc(S(C)(=O)=O)cc3)n2)n1C(C)C
Outline: as §1

[8] = compound: Cn1cc(-c2ccc3c(c2)CCN3C(=O)Cc2cccc(C(F)(F)F)c2)c2c(N)ncnc21
Outline: as §1

[9] = compound: Cn1cc(-c2ccc3nnc(C(F)(F)c4ccc5ncccc5c4)n3n2)cn1
Outline: as §1

tipifarnib = compound: Cn1cncc1[C@@](N)(c1ccc(Cl)cc1)c1ccc2c(c1)c(-c1cccc(Cl)c1)cc(=O)n2C [tipifarnib]
Outline: as §1

mubritinib = compound: FC(F)(F)c1ccc(/C=C/c2nc(COc3ccc(CCCCn4ccnn4)cc3)co2)cc1 [mubritinib]
Outline: as §1

duvelisib = compound: C[C@H](Nc1ncnc2nc[nH]c12)c1cc2cccc(Cl)c2c(=O)n1-c1ccccc1 [duvelisib]
Outline: as §1

tozasertib = compound: Cc1cc(Nc2cc(N3CCN(C)CC3)nc(Sc3ccc(NC(=O)C4CC4)cc3)n2)n[nH]1 [tozasertib]
Outline: as §1

Target	log2 fold change [1]	log2 fold change (crizotinib)	log2 fold change [2]	log2 fold change [3]	log2 fold change (gandotinib)	log2 fold change [4]	log2 fold change (doramapimod)	log2 fold change (ispinesib)	log2 fold change (bafetinib)	log2 fold change [5]	log2 fold change (nilotinib)	log2 fold change [6]	log2 fold change (dasatinib)	log2 fold change [7]	log2 fold change [8]	log2 fold change [9]	log2 fold change (tipifarnib)	log2 fold change (mubritinib)	log2 fold change (duvelisib)	log2 fold change (tozasertib)
TARBP1 (UniProt Q13395)	inactive: 0.076	inactive: 0.016	inactive: 0.028	inactive: -0.074	inactive: -0.075	inactive: 0.038	inactive: -0.004	inactive: 0.026	inactive: -0.022	inactive: 0.005	inactive: 0.019	inactive: 0.081	inactive: -0.058	inactive: -0.026	inactive: 0.116	inactive: -0.013	inactive: 0.036	inactive: -0.055		
STK38L (UniProt Q9Y2H1)	inactive: 0.028	inactive: 0.065	inactive: 0.069	inactive: -0.055	inactive: -0.105	inactive: 0.116	inactive: -0.022	inactive: -0.093	inactive: -0.02	inactive: -0.065	inactive: -0.032	inactive: -0.238	inactive: -0.012	inactive: -0.03	inactive: -0.122	inactive: -0.582		inactive: 0.081		
SUN2 (UniProt Q9UH99)	inactive: -0.001	inactive: -0.094	inactive: 0.063	inactive: 0.044	inactive: 0.004	inactive: 0.05	inactive: 0.077	inactive: -0.104	inactive: -0.04	inactive: 0.016	inactive: -0.007	inactive: -0.036	inactive: 0.004	inactive: -0.071	inactive: -0.052	inactive: -0.008	inactive: 0.013	inactive: -0.064		
TAGLN (UniProt Q01995)	inactive: -0.085	inactive: -0.132			inactive: 0.02	inactive: -0.183	inactive: -0.032		inactive: -0.415	inactive: 0.129			inactive: 0.607				inactive: 0.357		inactive: 0.128	
SUCLG1 (UniProt P53597)	inactive: 0.016	inactive: -0.028	inactive: 0.079	inactive: -0.072	inactive: -0.048	inactive: -0.004	inactive: -0.019	inactive: -0.012	inactive: -0.065	inactive: -0.01	inactive: -0.077	inactive: 0.029	inactive: -0.025	inactive: -0.008	inactive: 0.027	inactive: 0.078	inactive: -0.008	active: -0.273		
SYNE2 isoform 2 (UniProt Q8WXH0)	inactive: 0.209	inactive: -0.009		inactive: 0.429	active: 0.521	inactive: 0.06	inactive: 0.046	inactive: -0.08	inactive: -0.008	inactive: 0.031	inactive: -0.115	inactive: 0.006	inactive: -0.019	inactive: -0.069	inactive: 0.153	inactive: 0.027	inactive: -0.029	inactive: 0.233		
STOM (UniProt P27105)	inactive: 0.086	inactive: -0.005	inactive: -0.035	inactive: 0.182	inactive: 0.268	inactive: 0.01	inactive: -0.006	inactive: -0.29	inactive: -0.01	inactive: 0.043	inactive: 0.039	inactive: -0.007	inactive: 0.039	inactive: -0.03	inactive: -0.043	inactive: 0.055	inactive: 0.031	inactive: -0.008		
SURF1 (UniProt Q15526)	inactive: -0.001	inactive: -0.008	inactive: 0.043	inactive: -0.013	inactive: -0.066	inactive: 0.032	inactive: 0.01	inactive: -0.181	inactive: -0.184	inactive: -0.042	inactive: -0.065	inactive: 0.028	inactive: -0.028	inactive: 0.011	inactive: 0.021	inactive: 0.019	inactive: -0.061	inactive: 0.042		
SUN1 isoform 9 (UniProt O94901)	inactive: -0.03	inactive: -0.067	inactive: -0.005	inactive: 0.006	inactive: -0.052	inactive: -0.017	inactive: 0.089	active: -0.324		inactive: -0.036	inactive: -0.014	inactive: -0.115	inactive: 0.007	inactive: -0.018	inactive: -0.141	inactive: -0.055	inactive: 0.039	inactive: -0.021		
TANGO6 (UniProt Q9C0B7)	inactive: 0.006	inactive: -0.123	inactive: -0.022	active: 0.366		inactive: 0.078	inactive: -0.004	inactive: -0.085	inactive: 0.033		inactive: -0.018	inactive: -0.066	inactive: -0.216	inactive: -0.006	inactive: 0.083	inactive: -0.048	inactive: -0.067	inactive: 0.042		
TAX1BP1 (UniProt Q86VP1)	inactive: -0.001	inactive: -0.009	inactive: -0.058	inactive: 0.042	inactive: 0.156	inactive: 0.069	inactive: 0.062	inactive: -0.067	inactive: 0.011	inactive: -0.095	inactive: -0.086	inactive: 0.011	inactive: -0.024	inactive: 0.047	inactive: -0.068	inactive: 0.027	inactive: 0.092	inactive: 0.045		
TAMM41 isoform 3 (UniProt Q96BW9)	inactive: 0.064	active: -0.232	inactive: 0.073	inactive: -0.016	inactive: -0.04	inactive: 0.05	inactive: -0.048	active: -0.249	active: -0.278	inactive: -0.041	inactive: -0.112	inactive: -0.005	inactive: -0.108	inactive: 0.026	inactive: 0.037	inactive: 0.028	inactive: -0.043	inactive: -0.044		
TAF4 (UniProt O00268)	inactive: -0.09	inactive: 0.019	inactive: 0.046		inactive: -0.094		inactive: -0.033	inactive: -0.031	inactive: -0.153	inactive: 0						inactive: 0.042	inactive: -0.231	inactive: -0.01		inactive: -0.058
TBC1D10B (UniProt Q4KMP7)	inactive: 0.012	inactive: -0.04	inactive: 0.013	inactive: -0.153	inactive: 0.046	inactive: 0.092	inactive: 0.021	inactive: 0.083	inactive: -0.01	inactive: 0.022	inactive: 0.013	inactive: -0.09	inactive: -0.064	inactive: -0.149	inactive: 0.07	inactive: 0	inactive: 0.039	inactive: 0.013		
TARS2 (UniProt Q9BW92)	inactive: 0.022	inactive: 0.024	inactive: 0.094	inactive: -0.002	inactive: -0.173	inactive: 0.009	inactive: 0.015	inactive: -0.094	inactive: -0.081	inactive: 0.114	inactive: -0.094	inactive: -0.003	inactive: -0.055	inactive: 0	inactive: 0.084	inactive: 0.022	inactive: -0.119	inactive: 0.013		
SYMPK (UniProt Q92797)	inactive: -0.031	inactive: -0.189	inactive: 0.046	inactive: -0.026	inactive: -0.155	inactive: 0.235	inactive: -0.09	inactive: -0.023	inactive: -0.027	inactive: 0.036	inactive: -0.192	inactive: -0.001	inactive: -0.156	inactive: 0.037	inactive: -0.017	inactive: -0.043	inactive: -0.152	inactive: 0.015		
SYF2 (UniProt O95926)	inactive: -0.147	inactive: 0.206	inactive: -0.031	inactive: 0.157	inactive: 0.11	inactive: -0.078	inactive: 0.022	inactive: -0.079	inactive: -0.198	inactive: 0.021	inactive: -0.017	inactive: 0.25	inactive: 0.119	inactive: 0.308	inactive: -0.193	inactive: -0.021	inactive: 0.027	inactive: -0.002		
SUMO2 (UniProt P61956)	inactive: -0.082	inactive: 0.085		inactive: 0.032	inactive: 0.081	inactive: 0.031	inactive: 0.002	inactive: -0.187	inactive: -0.127	inactive: -0.023	inactive: 0.127	inactive: -0.027	inactive: 0.064	inactive: 0.004	inactive: -0.139	inactive: -0.039	inactive: 0.038	inactive: 0.07	inactive: -0.153	inactive: -0.133
SUPT5H (UniProt O00267)	inactive: 0.057	inactive: 0.049	inactive: 0.129	inactive: -0.057	inactive: -0.043	inactive: 0.079	inactive: -0.043	inactive: 0.02	inactive: -0.044	inactive: 0.033	inactive: -0.055	inactive: -0.042	inactive: -0.082	inactive: 0.01	inactive: 0.024	inactive: 0.036	inactive: -0.037	inactive: 0.031		

Just log2 fold change [1], log2 fold change (gandotinib) and log2 fold change (ispinesib) (two entries from above):
Target,log2 fold change [1],log2 fold change (gandotinib),log2 fold change (ispinesib)
SYF2 (UniProt O95926),inactive: -0.147,inactive: 0.11,inactive: -0.079
SUMO2 (UniProt P61956),inactive: -0.082,inactive: 0.081,inactive: -0.187
